Assay results reported in US11213029B2 (priority 2017, dated 2022).
Some results were stated once for a whole list of compounds, not compound by compound. For at least one compound, name, drawing or mass did not settle the structure.

These molecules were tested on Magnaporthe oryzae. Conditions: 500 mM (40 μl) on disc, 28° C., 96 hours; FIG. 8.
Format: cell-based
With R-(−)-carvone the “inhibitory ability against growth of Magnaporthe oryzae” value (shortened to “inhibitory ability against growth”) was ≥ 50%.
(S)-(−)-perillyl alcohol was tested, and the “inhibitory ability against growth” value was ≥ 50%.
For `C=C(C)[C@H]1CC=C(C)C(=O)C1` [S-(+)-carvone], the “inhibitory ability against growth” value was ≥ 50%.
